± gives the standard deviation. Only a part is listed here, and it is no random draw. Many entries were measured with a wide error.
system: EfPiwi piRISC loaded with piRNA #1 (26 nt); assay: pre-steady-state target cleavage rate (min^-1); guide: piRNA #1 5'p-UGAGGUAGUAGGUUGUAUAGUAUCCA; MIWI and MILI are mouse PIWI proteins and EfPiwi is from a freshwater sponge; tags in brackets are library labels; higher = faster piRNA-guided slicing of the target; settings: auxiliary factor: 500 nM Ephydatia muelleri Gtsf1
Summary of the method: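 The pre-steady-state cleavage rate came from a burst-and-steady-state fit to pooled data from three Cleave-'n-Seq trials, in which uncleaved targets were sequenced and normalised to depth and to weakly complementary targets. Each reaction held 0.1 nM transcribed, DNA-blocked target RNA library and 1 nM active affinity-purified piRISC carrying one synthetic guide, with or without 500 nM GTSF1 partner protein, in HEPES–potassium acetate buffer at 33 °C for 0–8 or 0–960 min. k3 was capped at 0.0001 min^-1.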

| Sequence | pre-steady-state target cleavage rate |
| --- | --- |
| GGAGACCUAACUAUACAAGCUUCUACCUCA | 0.00252 ± 0.0042 |
| GGAGACGAUAGUAUACAACCUUCUACCUCA | 0.00129 ± 0.0032 |
| GGAGAGGAUAUAUACAACCUACUACCUCA | 0.00764 ± 0.0042 |
| GGAGACCAAUCUAUACAACCUACUACCUCA | 0.0121 ± 0.0056 |
| GGAGACGAUACUAUAGAACCUACUAGCUCA | 0.00419 ± 0.0018 |
| GGAGACCAUACUUUACAAGCUACUACCUCA | 0.00123 ± 0.0036 |
| GGAGACGAUACAAUACAACCAACUACCUCA | 0.0037 ± 0.0029 |
| GGAGACCUAUGAUAACAAGGAACUACCUCA | < 0.0001 |
| GGAGACCUUACUAUACAACCUACUACCUACA | 0.00473 ± 0.0031 |
| GGAGUGGAUACUUUACAACCUACUACCACA | 0.0011 ± 0.0026 |
| GGAGACCUAACUAUACAACGAUGAUGGAGA [g12:g21:cont:t1A] | 0.000162 ± 0.034 |
| GGAGUGGAUAGUAUACAACCUACUACCUCA | 0.00712 ± 0.0031 |
| GGAGACCUUACUAUACUACCUACUAGCUCA | 0.00147 ± 0.0046 |
| GGAGACCUAUCAAUACAACCUUCUACCUCA | 0.00216 ± 0.0051 |
| GGAGACCUAUCAAUAGAACCUACUACCUCA | 0.000819 ± 0.0079 |
| GGAGACCUAUCUAUACCACCUACUACCUCA | 0.00113 ± 0.0027 |
| GGAGACCUAUCUAUACUACCUAGUACCUCA | 0.00113 ± 0.0048 |
| GGAGAGGAUACUAUACAACCUACAACCUCA | 0.00428 ± 0.0019 |
| GGAGACCUUACUAUACAGCCUACUACCUCA | 0.068 ± 0.028 |
| GGAGAGGAUACUAUUCUACCUACUACCUCA | 0.00283 ± 0.0038 |

| Sequence | pre-steady-state target cleavage rate |
| --- | --- |
| GGAGACCUAACUAUACAUCCUACUAGCUCA | 0.00354 ± 0.0042 |
| GGAGUGGAUACUAUACAACCUACUACCCCA | 0.00727 ± 0.0025 |
| GGAGACCAUUCUUUACAACCUACUACCUCA | 0.0111 ± 0.0056 |
| GGAGACCUAUGUAUACAAACUACUACCUCA | 0.00137 ± 0.0045 |
| GGAGACCUAUCUAUACAUCCUACUACCACA | 0.00248 ± 0.0037 |
| GGAGACGAUACUAUACAACCUAGUACCUCA | 0.00506 ± 0.0014 |
| GGAGACCUAUGUAUACAACCUACUACACUCA | 0.000224 ± 0.017 |
| GGAGACCUAUGAUAUGUUCCUACUCCCUCA | < 0.0001 |
| GGAGACCUUACUAUACUAGCUACUACCUCA | 0.00124 ± 0.0057 |
| GGAGACCUUACUAUACAUGGUACUACCUCA | 0.000744 ± 0.0079 |
| GGAGACCUAACUGAUACAACCUACUACCUCA | 0.00745 ± 0.0044 |
| GGAGACCUAUGAUAUGAGCCUACUACCUCA | 0.000174 ± 0.01 |
| GGAGACGAUAGUAUACAACCAACUACCUCA | 0.00204 ± 0.003 |
| GGAGUGGAUACUAUACAUGGAUGAUGGAGA [g14:g26:cont:t1A] | < 0.0001 |
| GGAGUGGAUACUAUACAAGCUACUACCUGA | 0.00454 ± 0.0019 |
| GGAGAGGAUACUAUACAACCUUCUACCUCA | 0.00778 ± 0.0039 |
| GGAGUGGAUACUUUACAACCUACUAGCUCA | 0.0012 ± 0.0027 |
| GGAGAGGAUACUAUACAACCUACAUGCUCA | 0.00124 ± 0.0019 |
| GGAGAGGAUACUAUAGCAACCUACUACCUCA | 0.0429 ± 0.019 |
| GGAGACCUAUCUAAACAUCCUACUACCUCA | 0.00214 ± 0.0039 |

Reprinted at random: 2 records from the list

| Sequence | pre-steady-state target cleavage rate |
| --- | --- |
| GGAGAGGAUACUAUACAACCUACAUGCUCA | 0.00124 ± 0.0019 |
| GGAGACCUAUGUAUACAAACUACUACCUCA | 0.00137 ± 0.0045 |

Reference: the supplement of paper PMC10338343
